Data as given in PubChem BioAssay AID1053209 (Peter MacCallum Cancer Centre, 2014)
Screen: 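Knock-downs that sensitise mouse osteosarcoma cells to doxorubicin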 (follow-up of hits). Cell system: mouse primary osteosarcoma cells. Knock-down reagent: single siRNA against mouse genes, 25 nM (text also states 40 nM). Timing: about 120 h (48 h before drug, then 72 h with drug). Challenge: doxorubicin 100 nM (about IC30-40), added 48 h after transfection, for 72 h. Detection: 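ATP-based luminescent viability, with or without doxorubicin, relative to non-targeting control NT1, mean of two replicates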. Reading the numbers: viability with doxorubicin, vs NT1: higher = more viable cells under doxorubicin; viability without drug, vs NT1: higher = more viable cells without drug. Call rule: 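Active when doxorubicin viability is at most 0.7 of NT1 and drug-free viability lies between 0.7 and 1.1, class LC dox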.
This is one part, drawn at random, of about 1,580 reagents tested. Over the whole deposit, 207 (13%) were called active. 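Rows are single siRNAs; four siRNAs per gene were tested, a gene counting as confirmed only when at least two agree.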 Reagents against one gene are numbered here. Not all columns of the deposit are shown.

gene,siRNA no.,combined effect class,"viability with doxorubicin, vs NT1","viability without drug, vs NT1",activity call
Ikzf2 (IKAROS family zinc finger 2),1,normal viability with and without drug,1.01,0.96,inactive
Ikzf2 (IKAROS family zinc finger 2),2,normal viability with and without drug,0.92,1.09,inactive
Ikzf2 (IKAROS family zinc finger 2),3,normal viability with and without drug,1.02,1,inactive
Ikzf2 (IKAROS family zinc finger 2),4,low viability only with doxorubicin; normal without drug,0.4,0.78,active
Rps3a1 (ribosomal protein S3A1),1,low viability with and without drug,0.11,0.18,inactive
Rps3a1 (ribosomal protein S3A1),2,low viability with and without drug,0.26,0.26,inactive
Rps3a1 (ribosomal protein S3A1),3,low viability with and without drug,0.21,0.34,inactive
Rps3a1 (ribosomal protein S3A1),4,low viability with and without drug,0.15,0.48,inactive
Dennd2c (DENN domain containing 2C),1,normal viability with and without drug,1.03,1.02,inactive
Dennd2c (DENN domain containing 2C),2,normal viability with and without drug,0.98,1.02,inactive
Dennd2c (DENN domain containing 2C),3,normal viability with and without drug,1.07,1.08,inactive
Dennd2c (DENN domain containing 2C),4,normal viability with and without drug,0.9,1.04,inactive
Elp1 (elongator complex protein 1),1,normal viability with and without drug,1.04,1.08,inactive
Elp1 (elongator complex protein 1),2,normal viability with and without drug,1.01,0.8,inactive
Elp1 (elongator complex protein 1),3,normal viability with and without drug,0.84,0.82,inactive
Elp1 (elongator complex protein 1),4,normal viability with and without drug,0.92,0.96,inactive
"Sdr16c5 (short chain dehydrogenase/reductase family 16C, member 5)",1,normal viability with and without drug,1.06,1.02,inactive
"Sdr16c5 (short chain dehydrogenase/reductase family 16C, member 5)",2,low viability with and without drug,0.28,0.54,inactive
"Sdr16c5 (short chain dehydrogenase/reductase family 16C, member 5)",3,low viability only with doxorubicin; normal without drug,0.7,0.82,active
"Sdr16c5 (short chain dehydrogenase/reductase family 16C, member 5)",4,normal viability with and without drug,0.71,0.92,inactive
"Supt16 (SPT16, facilitates chromatin remodeling subunit)",1,normal viability with and without drug,0.85,0.88,inactive
"Supt16 (SPT16, facilitates chromatin remodeling subunit)",2,normal viability with and without drug,0.78,0.91,inactive
"Supt16 (SPT16, facilitates chromatin remodeling subunit)",3,low viability only with doxorubicin; normal without drug,0.56,0.82,active
"Supt16 (SPT16, facilitates chromatin remodeling subunit)",4,low viability only with doxorubicin; normal without drug,0.67,0.94,active
Rps6kc1 (ribosomal protein S6 kinase C1),1,normal viability with and without drug,1.04,0.94,inactive
Rps6kc1 (ribosomal protein S6 kinase C1),2,normal viability with and without drug,0.97,0.98,inactive
Rps6kc1 (ribosomal protein S6 kinase C1),3,normal viability with and without drug,0.97,0.97,inactive
Rps6kc1 (ribosomal protein S6 kinase C1),4,normal viability with and without drug,0.93,0.99,inactive
Usp39 (ubiquitin specific peptidase 39),1,normal viability with and without drug,0.89,0.94,inactive
Usp39 (ubiquitin specific peptidase 39),2,normal viability with and without drug,0.9,0.96,inactive
Usp39 (ubiquitin specific peptidase 39),3,normal viability with and without drug,0.8,0.78,inactive
Usp39 (ubiquitin specific peptidase 39),4,normal viability with and without drug,0.92,0.81,inactive
Rps28 (ribosomal protein S28),1,low viability only with doxorubicin; normal without drug,0.68,0.84,active
Rps28 (ribosomal protein S28),2,low viability with and without drug,0.4,0.64,inactive
Rps28 (ribosomal protein S28),3,low viability with and without drug,0.25,0.41,inactive
Rps28 (ribosomal protein S28),4,low viability only with doxorubicin; normal without drug,0.57,0.78,active
Rps20 (ribosomal protein S20),1,normal viability with and without drug,0.85,0.92,inactive
Rps20 (ribosomal protein S20),2,normal viability with and without drug,0.83,1,inactive
Rps20 (ribosomal protein S20),3,low viability with and without drug,0.44,0.58,inactive
Rps20 (ribosomal protein S20),4,low viability with and without drug,0.4,0.57,inactive
Il3 (interleukin 3),1,normal viability with and without drug,0.97,1,inactive
Il3 (interleukin 3),2,high viability only with doxorubicin,1.14,1.05,inactive
Il3 (interleukin 3),3,normal viability with and without drug,1.03,0.98,inactive
Il3 (interleukin 3),4,high viability only with doxorubicin,1.16,1.04,inactive
Gsdmc (gasdermin C),1,normal viability with and without drug,0.94,1.07,inactive
Gsdmc (gasdermin C),2,normal viability with and without drug,0.79,0.97,inactive
Gsdmc (gasdermin C),3,normal viability with and without drug,1.02,1.08,inactive
Gsdmc (gasdermin C),4,high viability only with doxorubicin,1.15,1.06,inactive
Swi5 (SWI5 recombination repair homolog (yeast)),1,normal viability with and without drug,1.06,1.04,inactive
Swi5 (SWI5 recombination repair homolog (yeast)),2,high viability only with doxorubicin,1.1,1.05,inactive
Swi5 (SWI5 recombination repair homolog (yeast)),3,normal viability with and without drug,1.04,1.03,inactive
Swi5 (SWI5 recombination repair homolog (yeast)),4,normal viability with and without drug,0.78,0.97,inactive
Ndufa5 (NADH:ubiquinone oxidoreductase subunit A5),1,normal viability with and without drug,1.04,0.98,inactive
Ndufa5 (NADH:ubiquinone oxidoreductase subunit A5),2,normal viability with and without drug,0.9,0.99,inactive
Ndufa5 (NADH:ubiquinone oxidoreductase subunit A5),3,normal viability with and without drug,0.78,0.91,inactive
Ndufa5 (NADH:ubiquinone oxidoreductase subunit A5),4,normal viability with and without drug,0.92,0.94,inactive
Rps29 (ribosomal protein S29),1,low viability with and without drug,0.24,0.29,inactive
Rps29 (ribosomal protein S29),2,low viability with and without drug,0.16,0.33,inactive
Rps29 (ribosomal protein S29),3,low viability with and without drug,0.13,0.24,inactive
Rps29 (ribosomal protein S29),4,low viability with and without drug,0.32,0.39,inactive

Sorted by “viability with doxorubicin, vs NT1” (descending): some entries from above
gene,siRNA no.,combined effect class,"viability with doxorubicin, vs NT1","viability without drug, vs NT1",activity call
Dennd2c (DENN domain containing 2C),3,normal viability with and without drug,1.07,1.08,inactive
"Sdr16c5 (short chain dehydrogenase/reductase family 16C, member 5)",1,normal viability with and without drug,1.06,1.02,inactive
Elp1 (elongator complex protein 1),1,normal viability with and without drug,1.04,1.08,inactive
Elp1 (elongator complex protein 1),2,normal viability with and without drug,1.01,0.8,inactive
Elp1 (elongator complex protein 1),4,normal viability with and without drug,0.92,0.96,inactive
Dennd2c (DENN domain containing 2C),4,normal viability with and without drug,0.9,1.04,inactive
Elp1 (elongator complex protein 1),3,normal viability with and without drug,0.84,0.82,inactive
"Sdr16c5 (short chain dehydrogenase/reductase family 16C, member 5)",3,low viability only with doxorubicin; normal without drug,0.7,0.82,active
"Sdr16c5 (short chain dehydrogenase/reductase family 16C, member 5)",2,low viability with and without drug,0.28,0.54,inactive
